In paper PMC10696041 one finds binding data, which are given here for one molecule.

These are yes or no findings as the source states them, for the method shown. Some results given as binding are weak or reduced against the parent protein; the word gives no strength. Where a sequence is shown, tags or fusion partners need not be part of it.

The experiment has as its target T1, bone morphogenetic protein-1 (human) (UniProt P13497).
T1 sequence: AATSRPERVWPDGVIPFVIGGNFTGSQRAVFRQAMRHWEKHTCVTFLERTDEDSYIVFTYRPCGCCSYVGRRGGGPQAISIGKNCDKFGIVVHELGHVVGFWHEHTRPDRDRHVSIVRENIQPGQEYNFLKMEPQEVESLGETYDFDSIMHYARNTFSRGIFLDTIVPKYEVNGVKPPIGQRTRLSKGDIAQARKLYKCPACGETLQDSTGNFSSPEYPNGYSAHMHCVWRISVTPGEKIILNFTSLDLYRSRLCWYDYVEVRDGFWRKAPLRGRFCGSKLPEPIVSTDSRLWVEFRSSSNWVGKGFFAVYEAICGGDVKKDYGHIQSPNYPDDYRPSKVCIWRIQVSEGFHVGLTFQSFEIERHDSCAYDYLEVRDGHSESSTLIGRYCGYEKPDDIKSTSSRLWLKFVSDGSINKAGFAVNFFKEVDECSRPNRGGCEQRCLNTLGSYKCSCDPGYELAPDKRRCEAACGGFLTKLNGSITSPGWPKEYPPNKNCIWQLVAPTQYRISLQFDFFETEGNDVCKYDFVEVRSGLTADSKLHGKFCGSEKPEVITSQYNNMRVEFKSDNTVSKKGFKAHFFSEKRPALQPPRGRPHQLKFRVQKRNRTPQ
In words: SPR; BMP-1 immobilised by amine coupling on CM5 (974, 1302 or 1492 RU); 10 mM HEPES pH 7.4, 0.15 M NaCl, 5 mM CaCl2, 0.05% P20, 25 °C; PCPE-2 1.56-100 nM with steady-state fit (heterogeneous ligand model for kinetics), 50 nM for comparisons; both purified.

B1: procollagen C-proteinase enhancer 1, native form with no His tag (protein, UniProt Q15113 26-449)
chain: QTPNYTRPVFLCGGDVKGESGYVASEGFPNLYPPNKECIWTITVPEGQTVSLSFRVFDLELHPACRYDALEVFAGSGTSGQRLGRFCGTFRPAPLVAPGNQVTLRMTTDEGTGGRGFLLWYSGRATSGTEHQFCGGRLEKAQGTLTTPNWPESDYPPGISCSWHIIAPPDQVIALTFEKFDLEPDTYCRYDSVSVFNGAVSDDSRRLGKFCGDAVPGSISSEGNELLVQFVSDLSVTADGFSASYKTLPRGTAKEGQGPGPKRGTEPKVKLPPKSQPPEKTEESPSAPDAPTCPKQCRRTGTLQSNFCASSLVVTATVKSMVREPGEGLAVTVSLIGAYKTGGLDLPSPPTGASLKFYVPCKQCPPMKKGVSYLLMGQVEENRGPVLPPESFVVLHRPNQDQILTNLSKRKCPSQPVRAAASQD
As for B1, the binding result was “binds weakly”.
